Assay results as given in patent US20120122727A1, “IN VITRO METHOD FOR PREDICTING WHETHER A COMPOUND IS GENOTOXIC IN VIVO” (priority 2009, published 2012).

Tested on: primary mouse hepatocytes
Assay: Gene expression in primary mouse hepatocytes, GTX vs non-GTX (four-gene classifier, 24 h)
Protocol: Hepatocyte cells were incubated and exposed to a compound for 24 h before being harvested for RNA isolation.
The results of the gene expression analysis may then be fed into a statistical software package such as R, Splus, or Microsoft Excel. […] If none or only one of these criteria were met, no point was scored.
For each of the four genes mentioned in the table (1700007K13RIK, GAS2L3, SPC25, DDIT4L), a statistical comparison was made between the normalized expression data for these genes. […] If none or only one of these criteria were met, no point was scored.
For each compound, the sum of the scores for four genes is taken. If this score is 0, a compound can be believed not to be genotoxic. If this score is 1, 2, 3 or 4, a compound is genotoxic.
If none or only one of these criteria were met, no point was scored.

[1] = 24 h exposure, average of four replicates
[2] = log 2 ratio, 24 h exposure, concentration per Table 4

Question: `CCCCc1oc2ccccc2c1C(=O)c1cc(I)c(OCCN(CC)CC)c(I)c1` [AMD, Amiodarone] was tested. Which “score 1700007K13RIK” value [1] did it give?
Answer: Its value is 0.

Question: What about the “score DDIT4L” value [1] of the same compound?
Answer: Its value is 0.

Question: What about the “score GAS2L3” value [1] of the same compound?
Answer: The value was 0.

Question: And the “score SPC25” value [1]?
Answer: Its value is 0.

Question: What about the “Ratios of gene expression treated/untreated 1700007K13RIK” value [2] of the same compound?
Answer: The value was −0.2612.

Question: And the “Ratios of gene expression treated/untreated DDIT4L” value [2]?
Answer: The value was −0.309.

Question: What about the “Ratios of gene expression treated/untreated GAS2L3” value [2] of the same compound?
Answer: The value was 0.2758.

Question: And the “Ratios of gene expression treated/untreated SPC25” value [2]?
Answer: Its value is −0.4118.

Question: And the Total score (sum of scores for four genes, 0 = not genotoxic, 1, 2, 3 or 4 = genotoxic)?
Answer: The Total score was 0.
